Publication PMC11494886, “Discovery and design of molecular glue enhancers of CDK12–DDB1 interactions for targeted degradation of cyclin K” (RSC Chemical Biology, 2024)
Results are given in words; binding and its absence hold for the method and conditions named. Some results given as binding are weak or reduced against the parent protein; the word gives no strength.

Amino acid sequences for entries named in this document (tags omitted). Residues count along the entry.
Cdk12 kinase domain (residues 714–1063) (Q9NYV4, residues 714-1063): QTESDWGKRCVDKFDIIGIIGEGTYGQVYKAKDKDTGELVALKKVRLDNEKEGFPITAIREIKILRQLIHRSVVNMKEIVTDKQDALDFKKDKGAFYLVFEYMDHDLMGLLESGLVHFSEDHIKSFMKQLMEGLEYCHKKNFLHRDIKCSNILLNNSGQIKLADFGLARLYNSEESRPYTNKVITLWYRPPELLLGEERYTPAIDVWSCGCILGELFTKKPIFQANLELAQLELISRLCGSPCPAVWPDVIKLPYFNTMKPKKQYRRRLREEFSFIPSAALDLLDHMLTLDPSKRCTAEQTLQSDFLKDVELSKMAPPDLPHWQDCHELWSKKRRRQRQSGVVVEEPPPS
GST-CDK12 kinase domain (a.a. 715–1050) (Q9NYV4, residues 715-1050): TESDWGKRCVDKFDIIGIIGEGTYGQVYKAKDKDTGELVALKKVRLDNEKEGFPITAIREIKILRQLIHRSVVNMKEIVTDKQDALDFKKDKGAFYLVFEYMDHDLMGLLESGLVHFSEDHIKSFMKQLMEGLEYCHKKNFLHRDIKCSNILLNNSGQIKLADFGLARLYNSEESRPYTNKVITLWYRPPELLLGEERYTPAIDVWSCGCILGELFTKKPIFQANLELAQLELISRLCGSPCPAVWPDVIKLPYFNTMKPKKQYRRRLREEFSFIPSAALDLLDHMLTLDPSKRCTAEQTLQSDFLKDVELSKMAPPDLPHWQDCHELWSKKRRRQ

Assays:
[1] = target: GST-CDK12 kinase domain (a.a. 715–1050) (human) (UniProt Q9NYV4); assay: co-purification (glutathione affinity, then SEC); GST-CDK12 and cyclin K co-expressed in SF9 with CAK1; Glutathione Sepharose 4B, TEV digestion, Superdex 75 26/60 in 50 mM HEPES pH 7.4, 200 mM NaCl, 2.5% glycerol, 0.25 mM TCEP
[2] = target: Cdk12 kinase domain (residues 714–1063) (human) (UniProt Q9NYV4); assay: crystal structure; 80 μM Cdk12/CycK, 70 μM DDB1ΔB, 5 mM SR-4835; hanging drop, 10 °C, 1 M potassium citrate, 15% glycerol; 3.9 Å, space group P3(1)21; both purified

| binding [1] | binding [2] | Molecule |
| --- | --- | --- |
| binds | – | Cyclin K cyclin box (a.a. 11–267), untagged (from UniProt O75909 11-267) (domain or fragment) |
| – | binds | Cyclin K cyclin box domains (residues 1–267) (domain or fragment, UniProt O75909 1-267) MKENKENSSPSVTSANLDHTKPCWYWDKKDLAHTPSQLEGLDPATEARYRREGARFIFDVGTRLGLHYDTLATGIIYFHRFYMFHSFKQFPRYVTGACCLFLAGKVEETPKKCKDIIKTARSLLNDVQFGQFGDDPKEEVMVLERILLQTIKFDLQVEHPYQFLLKYAKQLKGDKNKIQKLVQMAWTFVNDSLCTTLSLQWEPEIIAVAVMYLAGRLCKFEIQEWTSKPMYRRWWEQFVQDVPVDVLEDICHQILDLYSQGKQQMPH |
